Measurements published in PMC12443970.
Results are given in words; binding and its absence hold for the method and conditions named. Binding seen in cells or lysates may run through a third protein. Some results given as binding are weak or reduced against the parent protein; the word gives no strength. For some assays here: Sequences can lack the tags named with a protein.

T1: HA-PANK4 (UniProt Q9NVE7)
T1 sequence: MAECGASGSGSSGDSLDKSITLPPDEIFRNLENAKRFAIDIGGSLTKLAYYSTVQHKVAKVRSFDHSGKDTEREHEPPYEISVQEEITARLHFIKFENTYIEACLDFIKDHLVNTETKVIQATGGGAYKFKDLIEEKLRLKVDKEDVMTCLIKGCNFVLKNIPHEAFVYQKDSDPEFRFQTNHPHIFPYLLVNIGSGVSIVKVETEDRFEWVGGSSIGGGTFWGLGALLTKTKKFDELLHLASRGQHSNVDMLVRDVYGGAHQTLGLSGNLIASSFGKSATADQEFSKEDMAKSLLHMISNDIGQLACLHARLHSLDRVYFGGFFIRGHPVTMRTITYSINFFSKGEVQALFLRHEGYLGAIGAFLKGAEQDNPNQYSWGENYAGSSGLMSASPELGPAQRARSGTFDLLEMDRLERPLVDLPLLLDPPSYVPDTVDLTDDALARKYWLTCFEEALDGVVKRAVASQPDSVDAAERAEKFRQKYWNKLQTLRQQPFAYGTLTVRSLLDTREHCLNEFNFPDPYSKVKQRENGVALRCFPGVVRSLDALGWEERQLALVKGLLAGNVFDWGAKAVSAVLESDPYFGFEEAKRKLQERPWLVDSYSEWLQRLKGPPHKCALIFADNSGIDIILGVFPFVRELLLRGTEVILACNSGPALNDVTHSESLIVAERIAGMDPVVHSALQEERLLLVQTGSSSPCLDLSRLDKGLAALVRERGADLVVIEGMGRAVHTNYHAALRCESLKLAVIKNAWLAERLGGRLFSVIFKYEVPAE

T2: PANK4 (pantothenate kinase 4), endogenous in murine primary CD4+ T cells (mouse (endogenous in primary CD4+ T cells)) (UniProt Q80YV4)
T2 sequence: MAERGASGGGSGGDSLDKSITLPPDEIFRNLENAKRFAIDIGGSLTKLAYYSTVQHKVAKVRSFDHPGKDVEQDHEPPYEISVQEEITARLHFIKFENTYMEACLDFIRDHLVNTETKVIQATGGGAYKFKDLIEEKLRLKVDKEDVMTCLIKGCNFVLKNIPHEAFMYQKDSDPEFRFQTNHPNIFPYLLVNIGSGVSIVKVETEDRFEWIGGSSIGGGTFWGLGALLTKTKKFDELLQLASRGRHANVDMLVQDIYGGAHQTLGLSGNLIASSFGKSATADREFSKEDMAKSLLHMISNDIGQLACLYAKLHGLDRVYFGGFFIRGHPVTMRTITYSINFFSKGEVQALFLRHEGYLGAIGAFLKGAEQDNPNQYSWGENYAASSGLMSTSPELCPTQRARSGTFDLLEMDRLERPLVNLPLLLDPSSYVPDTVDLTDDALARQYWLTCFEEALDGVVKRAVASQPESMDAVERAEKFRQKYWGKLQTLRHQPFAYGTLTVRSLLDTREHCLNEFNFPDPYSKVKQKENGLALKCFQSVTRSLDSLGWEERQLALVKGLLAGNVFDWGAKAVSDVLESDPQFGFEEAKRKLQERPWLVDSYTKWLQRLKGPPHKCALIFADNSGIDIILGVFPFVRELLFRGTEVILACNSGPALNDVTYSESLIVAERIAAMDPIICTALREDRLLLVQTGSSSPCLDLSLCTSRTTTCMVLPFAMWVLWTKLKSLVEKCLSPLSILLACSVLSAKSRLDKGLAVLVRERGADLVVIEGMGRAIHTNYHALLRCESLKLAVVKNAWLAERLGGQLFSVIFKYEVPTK


Key:
HA-PANK4 = target: T1, HA-PANK4; experiment: co-IP; HEK293T cells overexpressing PDK1 and PANK4; nondenaturing lysis buffer (20 mM Tris, 150 mM NaCl, 2 mM EDTA, 1% Triton X-100, 10% glycerol); anti-HA antibody at 4 °C overnight, Protein G Sepharose; immunoblotting
[1] = target: T2, PANK4 (pantothenate kinase 4), endogenous in murine primary CD4+ T cells (mouse (endogenous in primary CD4+ T cells)); experiment: co-IP; murine primary CD4+ T cells with or without 30 min of TCR/CD28 stimulation; nondenaturing lysis buffer (20 mM Tris, 150 mM NaCl, 2 mM EDTA, 1% Triton X-100, 10% glycerol); anti-PANK4 antibody at 4 °C overnight, Protein G Sepharose; immunoblotting

binding (HA-PANK4) | binding [1] | Binder
binds |  | Myc-PDK1 (protein, UniProt O15530 1-556) MARTTSQLYDAVPIQSSVVLCSCPSPSMVRTQTESSTPPGIPGGSRQGPAMDGTAAEPRPGAGSLQHAQPPPQPRKKRPEDFKFGKILGEGSFSTVVLARELATSREYAIKILEKRHIIKENKVPYVTRERDVMSRLDHPFFVKLYFTFQDDEKLYFGLSYAKNGELLKYIRKIGSFDETCTRFYTAEIVSALEYLHGKGIIHRDLKPENILLNEDMHIQITDFGTAKVLSPESKQARANSFVGTAQYVSPELLTEKSACKSSDLWALGCIIYQLVAGLPPFRAGNEYLIFQKIIKLEYDFPEKFFPKARDLVEKLLVLDATKRLGCEEMEGYGPLKAHPFFESVTWENLHQQTPPKLTAYLPAMSEDDEDCYGNYDNLLSQFGCMQVSSSSSSHSLSASDTGLPQRSGSNIEQYIHDLDSNSFELDLQFSEDEKRLLLEKQAGGNPWHQFVENNLILKMGPVDKRKGLFARRRQLLLTEGPHLYYVDPVNKVLKGEIPWSQELRPEAKNFKTFFVHTPNRTYYLMDPSGNAHKWCRKIQEVWRQRYQSHPDAAVQ
 | binds | PDK1 (3-phosphoinositide-dependent protein kinase 1), endogenous in murine primary CD4+ T cells (protein, UniProt Q9Z2A0 1-559) MARTTSQLYDAVPIQSSVVLCSCPSPSMVRSQTEPGSSPGIPSGVSRQGSTMDGTTAEARPSTNPLQQHPAQLPPQPRKKRPEDFKFGKILGEGSFSTVVLARELATSREYAIKILEKRHIIKENKVPYVTRERDVMSRLDHPFFVKLYFTFQDDEKLYFGLSYAKNGELLKYIRKIGSFDETCTRFYTAEIVSALEYLHGKGIIHRDLKPENILLNEDMHIQITDFGTAKVLSPESKQARANSFVGTAQYVSPELLTEKSACKSSDLWALGCIIYQLVAGLPPFRAGNEYLIFQKIIKLEYHFPEKFFPKARDLVEKLLVLDATKRLGCEEMEGYGPLKAHPFFETITWENLHQQTPPKLTAYLPAMSEDDEDCYGNYDNLLSQFGFMQVSSSSSSHSLSTVETSLPQRSGSNIEQYIHDLDTNSFELDLQFSEDEKRLLLEKQAGGNPWHQFVENNLILKMGPVDKRKGLFARRRQLLLTEGPHLYYVDPVNKVLKGEIPWSQELRPEAKNFKTFFVHTPNRTYYLMDPSGNAHKWCRKIQEVWRQQYQSNPDAAVQ
